Measured values published in paper PMC8830128.
No constants are given. Whether binding was seen depends on the method and setting. In cells and extracts the contact can be indirect. Sequences can lack the tags named with a protein.

Sequences of proteins named here, by UniProt entry; tags and fusion partners are left off. Residues count along the entry.
UniProt P35968, residues 20-1356: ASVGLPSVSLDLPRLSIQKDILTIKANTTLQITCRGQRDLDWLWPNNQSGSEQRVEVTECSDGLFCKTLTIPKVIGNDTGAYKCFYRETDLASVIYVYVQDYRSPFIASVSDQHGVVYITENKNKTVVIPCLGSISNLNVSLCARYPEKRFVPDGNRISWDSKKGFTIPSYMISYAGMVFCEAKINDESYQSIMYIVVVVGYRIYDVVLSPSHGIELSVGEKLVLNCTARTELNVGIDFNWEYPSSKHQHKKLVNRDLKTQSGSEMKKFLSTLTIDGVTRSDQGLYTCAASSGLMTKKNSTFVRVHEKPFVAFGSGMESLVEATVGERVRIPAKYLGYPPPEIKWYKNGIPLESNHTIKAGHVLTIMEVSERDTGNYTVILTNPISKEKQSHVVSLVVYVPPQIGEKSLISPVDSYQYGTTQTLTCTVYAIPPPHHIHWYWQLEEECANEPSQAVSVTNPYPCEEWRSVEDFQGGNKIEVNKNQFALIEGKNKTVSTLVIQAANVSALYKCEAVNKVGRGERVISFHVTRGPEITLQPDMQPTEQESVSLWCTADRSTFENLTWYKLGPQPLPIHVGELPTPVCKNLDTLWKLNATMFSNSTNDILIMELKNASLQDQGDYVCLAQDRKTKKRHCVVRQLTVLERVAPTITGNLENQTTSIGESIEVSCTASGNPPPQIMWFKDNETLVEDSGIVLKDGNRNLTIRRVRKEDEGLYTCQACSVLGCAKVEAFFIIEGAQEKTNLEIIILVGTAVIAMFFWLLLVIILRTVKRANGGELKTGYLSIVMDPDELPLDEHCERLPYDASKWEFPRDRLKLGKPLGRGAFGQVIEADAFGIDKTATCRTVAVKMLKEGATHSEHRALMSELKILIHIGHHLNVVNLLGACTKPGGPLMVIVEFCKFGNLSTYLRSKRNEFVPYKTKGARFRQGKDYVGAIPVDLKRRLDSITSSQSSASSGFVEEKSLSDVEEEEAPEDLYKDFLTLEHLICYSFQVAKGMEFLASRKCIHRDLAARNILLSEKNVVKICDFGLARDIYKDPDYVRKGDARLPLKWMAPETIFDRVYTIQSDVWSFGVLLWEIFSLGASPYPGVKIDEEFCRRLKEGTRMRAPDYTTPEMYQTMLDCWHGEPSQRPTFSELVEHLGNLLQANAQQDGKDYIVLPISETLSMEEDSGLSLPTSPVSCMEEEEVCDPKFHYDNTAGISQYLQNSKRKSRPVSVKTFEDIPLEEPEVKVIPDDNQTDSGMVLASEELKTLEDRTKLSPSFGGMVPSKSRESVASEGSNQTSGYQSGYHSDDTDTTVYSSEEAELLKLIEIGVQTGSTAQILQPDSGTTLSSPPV

Target: T1, DIX domain containing 1 (DIXDC1), Flag-tagged (UniProt Q155Q3)
T1 sequence: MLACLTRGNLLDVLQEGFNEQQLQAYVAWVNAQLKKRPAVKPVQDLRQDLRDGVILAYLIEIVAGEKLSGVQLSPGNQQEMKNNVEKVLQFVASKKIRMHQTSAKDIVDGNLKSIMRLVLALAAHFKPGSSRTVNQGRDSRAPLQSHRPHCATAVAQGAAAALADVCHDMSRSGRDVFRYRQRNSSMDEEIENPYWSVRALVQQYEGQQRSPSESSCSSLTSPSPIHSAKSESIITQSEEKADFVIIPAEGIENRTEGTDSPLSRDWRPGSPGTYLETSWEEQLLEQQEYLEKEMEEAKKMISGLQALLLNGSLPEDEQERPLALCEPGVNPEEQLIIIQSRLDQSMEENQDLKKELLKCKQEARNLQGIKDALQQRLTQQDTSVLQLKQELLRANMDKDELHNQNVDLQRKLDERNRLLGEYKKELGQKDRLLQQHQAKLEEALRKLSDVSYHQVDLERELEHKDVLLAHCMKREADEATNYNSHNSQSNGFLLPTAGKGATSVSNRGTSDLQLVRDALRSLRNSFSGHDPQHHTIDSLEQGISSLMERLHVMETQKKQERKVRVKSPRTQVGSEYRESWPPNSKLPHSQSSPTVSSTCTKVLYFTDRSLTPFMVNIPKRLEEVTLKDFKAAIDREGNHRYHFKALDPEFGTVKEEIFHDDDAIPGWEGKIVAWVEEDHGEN
Experiment: co-IP; co-transfected HEK293T lysed in NP-40 lysis buffer (50 mM Tris/HCl pH 8.0, 150 mM NaCl, 1% NP-40, protease inhibitors); immunoprecipitated overnight at 4 °C with antibodies against Dvl2, VEGFR2 or DIXDC1, protein G agarose; western blot

binding: no binding
Substance: Vascular endothelial growth factor receptor 2 (VEGFR2), transfected (from UniProt P35968 20-1356)
